Data reported in PubChem BioAssay AID504444 (National Center for Advancing Translational Sciences (NCATS), 2011).
In all, about 360,000 compounds went through this assay and about 7,500 (2.1%) were called active. This list was built around the results that the source calls inconclusive (neither active nor inactive); the mix of calls is not that of the screen. The call rests on the fitted dose curve; in most records, active means well fitted inhibition curve with a large enough effect; inconclusive means small, poorly fitted or top-dose-only effect, or effect the other way; inactive means flat fitted curve, though single readings scatter. Potencies beside an inconclusive call are fits to weak or partial responses and may not hold up.

Experiment: Nrf2 qHTS screen for inhibitors; further: nearly all actives have a fitted effect of over 60% in size
Conditions: A549 ARE-Fluc reporter, luciferase luminescence, 18-24 h; series mostly up to 46 µM
Outline: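 Nrf2 activity is the BugLite luminescence, read 15 min after reagent at room temperature, following CellTiter-Fluor cytotoxicity readout (30 min, 37C). Compound titrations were applied for 18-24 h to 5000 A549 ARE_Fluc cells/well in 5% FBS OPTI-MEM.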
Potency means the concentration at half of the fitted maximal effect.

| Compound | Potency |
| --- | --- |
| COC(=O)c1ccc(NC(=O)CNS(=O)(=O)c2cccs2)cc1 | inconclusive: 25.9 µM [activator, partial curve, poor fit] |
| Fc1ccc2[nH]c3c(NCCN4CCOCC4)ncnc3c2c1 | inconclusive: 32.6 µM [falling, single point] |
| CCC1Sc2ccc(S(=O)(=O)CCC(=O)Nc3cccc(Br)c3)cc2NC1=O (stereo not given) | inactive |
| NC(=O)Nc1ccccc1C(=O)NCCc1ccccc1 | inconclusive: 1.3 µM [activator, full curve] |
| O=C(Nc1ccccc1)N1CCCC2CCCCC21 (stereo not given) | inconclusive: 1.84 µM [activator, full curve, poor fit] |
| Cc1ccc(Nc2nc(-c3c(C)nc4ccccn34)cs2)cc1 | inconclusive: 18.4 µM [falling, single point] |
| N=c1oc2ccc(Cl)cc2cc1C(=O)NC1CCCCCC1 | inconclusive: 32.6 µM [falling, single point] |
| O=C(N/N=C\c1ccc(CNS(=O)(=O)c2ccccc2)o1)C(=O)Nc1ccc(F)cc1 | inactive |
| CS(=O)(=O)c1ccc(C(=O)OCC(=O)N2CCCC2)cc1[N+](=O)[O-] | inactive |
| Cc1ccc(-c2nnc(Nc3cccc(Br)c3)c3ccccc23)cc1S(=O)(=O)NCC1CCCO1 (stereo not given) | inconclusive: 20.6 µM [falling, partial curve, poor fit] |
| Cc1ccc(NC(=O)CCCn2nc(C)c3sc4ccccc4c3c2=O)c(Cl)c1 | inconclusive: 29.1 µM [activator, single point] |
| COC(=O)c1ccc(/C=C/c2c(-c3ccc(OC)cc3)oc3ccccc23)cc1 | inconclusive: 23.1 µM [falling, single point] |
| CCC(C(=O)Nc1cccc(C#N)c1)n1nc(-c2ccccc2)ccc1=O (stereo not given) | inactive |
| Cc1sc2ncnc(N3CCC(C(=O)Nc4ccc(Cl)cc4Cl)CC3)c2c1C | inconclusive: 18.4 µM [falling, single point] |
| COc1ccc(C(CNC(=O)c2ccc(-c3nc4ccccc4s3)o2)N2CCCC2)cc1 (stereo not given) | inconclusive: 0.82 µM [activator, partial curve] |
| Cc1ccc(CNc2ccc3c(c2)ncn3C)cc1 | inconclusive: 4.11 µM [activator, full curve, poor fit] |
| COc1ccc(-c2cc(C(=O)N3CCCc4ccccc43)no2)cc1 | inconclusive: 20.6 µM [activator, single point] |
| COc1ccc(/C=C/C(=O)c2cc(F)ccc2OC(=O)c2ccc(OC)c(OC)c2)cc1OC | inactive |
| Cc1ccc(S(=O)(=O)N2CCN(c3nc(C)c4c(c3C#N)CC(C)(C)OC4)CC2)cc1 | inconclusive: 25.9 µM [falling, partial curve, poor fit] |
| Cc1[nH]c2ccccc2c1/C=C/c1nc2ccccc2c(=O)n1-c1cccc([N+](=O)[O-])c1 | inconclusive: 29.1 µM [falling, single point] |
| CCN1c2ccccc2-c2nc(SCC(=O)Nc3cc(F)ccc3F)ncc2S1(=O)=O | inconclusive: 29.1 µM [falling, single point] |
| Cc1ccccc1NC(=O)C(=O)Nc1ccccc1C | inconclusive: 3.66 µM [activator, partial curve] |

For convenience, 11 of the compounds above.

| Compound | Potency |
| --- | --- |
| CCC1Sc2ccc(S(=O)(=O)CCC(=O)Nc3cccc(Br)c3)cc2NC1=O (stereo not given) | inactive |
| NC(=O)Nc1ccccc1C(=O)NCCc1ccccc1 | inconclusive: 1.3 µM [activator, full curve] |
| O=C(Nc1ccccc1)N1CCCC2CCCCC21 (stereo not given) | inconclusive: 1.84 µM [activator, full curve, poor fit] |
| Cc1ccc(Nc2nc(-c3c(C)nc4ccccn34)cs2)cc1 | inconclusive: 18.4 µM [falling, single point] |
| N=c1oc2ccc(Cl)cc2cc1C(=O)NC1CCCCCC1 | inconclusive: 32.6 µM [falling, single point] |
| O=C(N/N=C\c1ccc(CNS(=O)(=O)c2ccccc2)o1)C(=O)Nc1ccc(F)cc1 | inactive |
| CS(=O)(=O)c1ccc(C(=O)OCC(=O)N2CCCC2)cc1[N+](=O)[O-] | inactive |
| Cc1ccc(-c2nnc(Nc3cccc(Br)c3)c3ccccc23)cc1S(=O)(=O)NCC1CCCO1 (stereo not given) | inconclusive: 20.6 µM [falling, partial curve, poor fit] |
| Cc1ccc(NC(=O)CCCn2nc(C)c3sc4ccccc4c3c2=O)c(Cl)c1 | inconclusive: 29.1 µM [activator, single point] |
| COC(=O)c1ccc(/C=C/c2c(-c3ccc(OC)cc3)oc3ccccc23)cc1 | inconclusive: 23.1 µM [falling, single point] |
| CCC(C(=O)Nc1cccc(C#N)c1)n1nc(-c2ccccc2)ccc1=O (stereo not given) | inactive |

The listing continues.

| Compound | Potency |
| --- | --- |
| O=C(CSc1ccc(Cl)cc1)Nc1ccccc1N1CCN(C(=O)c2ccccc2)CC1 | inconclusive: 29.1 µM [falling, single point] |
| COc1ccc(CCC(=O)Nc2cccc(S(=O)(=O)N3CCCCCC3)c2)cc1 | active: 20.6 µM |
| Cc1cc(C)cc(NC(=O)c2cc(C)n(Cc3cccs3)c2C)c1 | inconclusive: 18.4 µM [activator, single point] |
| O=c1cc(-c2ccc([N+](=O)[O-])cc2)nc2cc(-c3ccc(F)cc3)[nH]n12 | inactive |
| O=S(=O)(c1ccc(Cl)c(C(F)(F)F)c1)N1CCN(c2ccccn2)CC1 | inconclusive: 14.6 µM [falling, partial curve, poor fit] |
| CCc1c(C(C)S(=O)(=O)c2ccccc2)[nH]c(=O)n1CC (stereo not given) | inactive |
| CCc1cccc(C)c1NC(=O)C(CC)Sc1nncn2c1cc1occc12 (stereo not given) | inconclusive: 29.1 µM [falling, single point] |
| CCC(=O)Nc1cc(-c2nc3ccccc3s2)c(Cl)cc1Cl | inconclusive: 7.31 µM [activator, partial curve, poor fit] |
| COc1cc2c(cc1NC(=O)C(C)Sc1ccc(C)cc1)oc1ccccc12 (stereo not given) | inconclusive: 11.6 µM [falling, single point] |
| Cc1ccc(Nc2nc(C)c(NC(=O)c3ccc(C)cc3)c(Nc3ccc(C)cc3)n2)cc1 | inconclusive: 32.6 µM [falling, single point] |
| Cc1ccc(S(=O)(=O)Nc2cccc(C(=O)NCC(c3ccco3)N3CCCC3)c2)cc1F (stereo not given) | inactive |
| CCOc1ccc(C(=O)Nc2ccc3oc(-c4ccncc4)nc3c2)cc1 | inconclusive: 2.91 µM [falling, full curve] |
| CCS(=O)(=O)N1CCc2cc(C(=O)Nc3cc(OC)c(Cl)cc3OC)ccc21 | inactive |
| CC(NC(=O)Cn1cnnn1)C12CC3CC(CC(C3)C1)C2 (stereo not given) | inactive |
| COc1ccc(C(=O)NCCNc2ncc(C(F)(F)F)cc2Cl)cc1[N+](=O)[O-] | inconclusive: 25.9 µM [falling, partial curve, poor fit] |
| COc1ccc(-c2csc(NC(=O)C3=COCCO3)n2)cc1OC | inconclusive: 7.31 µM [activator, partial curve] |
| Cc1ccc(NC(=O)Cn2cc(C(=O)C3CCCCC3)c3ccccc32)c(C)c1 | inconclusive: 23.1 µM [falling, single point] |
| O=C(OCC(=O)c1c[nH]c2ccccc12)C1=COCCO1 | inconclusive: 20.6 µM [activator, single point] |
| CCOc1ccc(N2C(=O)C3C(C2=O)C3(c2ccccc2)c2ccccc2)cc1 (stereo not given) | inconclusive: 29.1 µM [falling, single point] |
| CCN(CC)C(=O)CSc1nnc(-c2ccccc2)o1 | inconclusive: 6.51 µM [activator, single point] |
| Cn1c(=O)n(C)c2cc(NS(=O)(=O)c3ccc(C(C)(C)C)cc3)c(NCc3ccccc3)cc21 | active: 10.3 µM |
| CCOC(=O)CC1COCCN1C(=O)c1ccc2oc(Cc3ccccc3)nc2c1 (stereo not given) | inconclusive: 11.6 µM [activator, partial curve] |

| Compound | Potency |
| --- | --- |
| CCCn1c(SCC(=O)c2cc(C)c(C)cc2C)n[nH]c1=O | inconclusive: 3.66 µM [falling, partial curve, poor fit] |
| CCOC(=O)C(=CNNc1cccc(Cl)c1)C(=O)OCC | inconclusive: 7.31 µM [falling, partial curve, poor fit] |
| CCOc1ccc(S(=O)(=O)N2CCN(C(=S)NC3CC3)CC2)cc1 | inconclusive: 18.4 µM [falling, partial curve, poor fit] |
| COc1ccc(CCNC(=O)Cn2nc(C)c3c(C)n(-c4ccc(C)cc4)nc3c2=O)c(OC)c1 | inconclusive: 23.1 µM [falling, single point] |
| O=c1c(N2CCOCC2)coc2ccccc12 | inconclusive: 4.61 µM [activator, full curve] |
| CCO[C@H]1OC(C(=O)NCc2nc3ccccc3[nH]2)=C[C@@H](c2csc3ccccc23)[C@@H]1CCCO | inconclusive: 23.1 µM [falling, single point] |
| COc1cc2ncnc(NCc3ccccc3)c2cc1OC | inconclusive: 29.1 µM [falling, single point] |
| CCC(c1nnnn1Cc1ccco1)N(Cc1cc2cc(OC)ccc2[nH]c1=O)C1CCCCC1 (stereo not given) | inconclusive: 32.6 µM [falling, single point] |
| O=C(c1ccco1)N1CCN(c2ncnc3scc(-c4ccc(F)cc4)c23)CC1 | inactive |
| O=C(CSc1nc2c(c(=O)[nH]1)CCC2)Nc1cccc(F)c1 | inconclusive: 16.4 µM [falling, partial curve] |
| CN(C)c1nc(SCC(=O)Nc2ccc(Cl)c(Cl)c2)nc(N2CCOCC2)n1 | inconclusive: 32.6 µM [falling, single point] |
| Cc1cccc(Nc2nc(-c3ccc(F)c(C)c3)cs2)n1 | inconclusive: 6.51 µM [activator, partial curve] |
| COc1ccc(-c2csc(Nc3ccc(S(=O)(=O)Nc4cc(C)on4)cc3)n2)cc1 | inconclusive: 18.4 µM [falling, single point] |
| Cc1ccc(Cl)cc1Nc1nc(-c2sc(NC(=O)C(C)(C)C)nc2C)cs1 | active: 11.6 µM |
| CCCC(=O)NC(c1ccc(Cl)cc1)c1ccc2cccnc2c1O (stereo not given) | inconclusive: 23.1 µM [falling, single point] |
| Cc1ccc(C2=NNC(C(O)C(O)C(O)CO)S2)cc1 (stereo not given) | inconclusive: 18.4 µM [activator, single point] |
| COc1ccccc1CNCC(=O)Nc1cc(S(=O)(=O)N2CCCCCC2)ccc1Cl | inconclusive: 20.6 µM [falling, single point] |
| CCOC(=O)c1c(NC(=O)Cn2c(C)nc3ccccc32)sc2c1CCC2 | active: 5.8 µM |
| COc1ccc(Br)cc1/C=C/C(=O)OCC(=O)NCCc1ccc(S(N)(=O)=O)cc1 | inconclusive: 5.8 µM [activator, partial curve, poor fit] |
| C=CCn1c(SCC(=O)Nc2ccccc2F)nc2ccccc2c1=O | inconclusive: 20.6 µM [falling, partial curve, poor fit] |
| O=C(CN1CCCC1c1cccs1)Nc1cc(S(=O)(=O)N2CCCCC2)ccc1Cl (stereo not given) | inconclusive: 10.3 µM [falling, partial curve, poor fit] |
